# The other results are listed elsewhere or left out. Most entries show no effect beyond the scatter of the controls.
# Amino acid sequences for entries named in this document (tags omitted). A change or cut given only in a name is not applied to a line headed by its entry.
# UniProt Q3U487: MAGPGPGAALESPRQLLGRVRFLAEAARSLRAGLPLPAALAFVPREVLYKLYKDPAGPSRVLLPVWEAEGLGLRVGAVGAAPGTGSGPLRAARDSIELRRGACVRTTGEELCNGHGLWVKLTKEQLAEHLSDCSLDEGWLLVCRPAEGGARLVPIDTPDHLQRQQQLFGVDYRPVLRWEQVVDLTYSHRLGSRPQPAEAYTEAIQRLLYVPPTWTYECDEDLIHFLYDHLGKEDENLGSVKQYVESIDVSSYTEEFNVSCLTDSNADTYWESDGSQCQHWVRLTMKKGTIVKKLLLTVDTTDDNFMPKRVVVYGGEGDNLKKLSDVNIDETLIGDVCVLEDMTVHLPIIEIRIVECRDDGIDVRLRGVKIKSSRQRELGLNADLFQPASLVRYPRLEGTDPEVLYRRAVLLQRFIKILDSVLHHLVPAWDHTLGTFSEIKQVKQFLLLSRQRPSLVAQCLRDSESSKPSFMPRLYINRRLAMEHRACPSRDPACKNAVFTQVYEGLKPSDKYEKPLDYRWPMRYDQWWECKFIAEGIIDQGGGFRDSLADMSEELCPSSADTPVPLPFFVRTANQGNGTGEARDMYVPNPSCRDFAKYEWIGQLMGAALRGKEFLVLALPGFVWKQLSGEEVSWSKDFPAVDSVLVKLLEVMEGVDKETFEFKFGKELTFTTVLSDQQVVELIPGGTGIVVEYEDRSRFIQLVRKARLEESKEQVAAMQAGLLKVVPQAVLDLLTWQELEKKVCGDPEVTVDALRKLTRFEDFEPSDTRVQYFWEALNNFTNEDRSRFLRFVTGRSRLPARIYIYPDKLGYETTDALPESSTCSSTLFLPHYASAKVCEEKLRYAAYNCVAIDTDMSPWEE
# UniProt Q4VAC9: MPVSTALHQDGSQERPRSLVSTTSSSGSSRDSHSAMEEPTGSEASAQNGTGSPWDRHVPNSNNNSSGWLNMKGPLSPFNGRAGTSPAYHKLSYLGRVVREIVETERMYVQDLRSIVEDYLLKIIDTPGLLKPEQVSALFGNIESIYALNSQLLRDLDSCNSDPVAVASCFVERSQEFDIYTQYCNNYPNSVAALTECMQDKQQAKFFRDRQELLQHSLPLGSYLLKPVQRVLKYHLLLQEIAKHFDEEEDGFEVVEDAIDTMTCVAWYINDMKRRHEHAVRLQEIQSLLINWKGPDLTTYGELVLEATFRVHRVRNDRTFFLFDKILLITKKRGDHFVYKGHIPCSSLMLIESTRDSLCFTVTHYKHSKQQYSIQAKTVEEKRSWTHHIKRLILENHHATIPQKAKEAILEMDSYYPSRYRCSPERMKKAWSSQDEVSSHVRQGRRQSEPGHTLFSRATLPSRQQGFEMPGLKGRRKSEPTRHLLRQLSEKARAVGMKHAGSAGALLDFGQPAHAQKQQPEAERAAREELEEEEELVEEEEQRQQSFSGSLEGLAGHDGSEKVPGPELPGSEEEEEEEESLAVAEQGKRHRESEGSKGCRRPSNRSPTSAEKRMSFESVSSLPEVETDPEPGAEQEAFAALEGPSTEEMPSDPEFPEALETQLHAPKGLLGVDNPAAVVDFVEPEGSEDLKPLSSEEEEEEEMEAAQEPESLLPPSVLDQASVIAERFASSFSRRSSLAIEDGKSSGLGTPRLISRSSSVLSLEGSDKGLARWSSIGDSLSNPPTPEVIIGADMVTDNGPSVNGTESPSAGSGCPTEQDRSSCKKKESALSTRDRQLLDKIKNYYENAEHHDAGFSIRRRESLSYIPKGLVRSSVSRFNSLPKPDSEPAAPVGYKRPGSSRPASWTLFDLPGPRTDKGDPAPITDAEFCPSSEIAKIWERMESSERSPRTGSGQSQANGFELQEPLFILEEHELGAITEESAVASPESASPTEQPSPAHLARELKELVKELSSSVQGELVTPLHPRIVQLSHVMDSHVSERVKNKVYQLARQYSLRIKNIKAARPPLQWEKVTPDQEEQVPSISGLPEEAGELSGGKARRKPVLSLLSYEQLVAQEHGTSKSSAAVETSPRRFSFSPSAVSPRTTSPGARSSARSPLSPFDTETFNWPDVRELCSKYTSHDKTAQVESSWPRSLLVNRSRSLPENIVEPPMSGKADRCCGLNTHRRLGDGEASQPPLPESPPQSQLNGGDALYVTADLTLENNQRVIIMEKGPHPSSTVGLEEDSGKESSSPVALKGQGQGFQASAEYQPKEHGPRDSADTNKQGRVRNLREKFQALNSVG
# UniProt Q5BLK4: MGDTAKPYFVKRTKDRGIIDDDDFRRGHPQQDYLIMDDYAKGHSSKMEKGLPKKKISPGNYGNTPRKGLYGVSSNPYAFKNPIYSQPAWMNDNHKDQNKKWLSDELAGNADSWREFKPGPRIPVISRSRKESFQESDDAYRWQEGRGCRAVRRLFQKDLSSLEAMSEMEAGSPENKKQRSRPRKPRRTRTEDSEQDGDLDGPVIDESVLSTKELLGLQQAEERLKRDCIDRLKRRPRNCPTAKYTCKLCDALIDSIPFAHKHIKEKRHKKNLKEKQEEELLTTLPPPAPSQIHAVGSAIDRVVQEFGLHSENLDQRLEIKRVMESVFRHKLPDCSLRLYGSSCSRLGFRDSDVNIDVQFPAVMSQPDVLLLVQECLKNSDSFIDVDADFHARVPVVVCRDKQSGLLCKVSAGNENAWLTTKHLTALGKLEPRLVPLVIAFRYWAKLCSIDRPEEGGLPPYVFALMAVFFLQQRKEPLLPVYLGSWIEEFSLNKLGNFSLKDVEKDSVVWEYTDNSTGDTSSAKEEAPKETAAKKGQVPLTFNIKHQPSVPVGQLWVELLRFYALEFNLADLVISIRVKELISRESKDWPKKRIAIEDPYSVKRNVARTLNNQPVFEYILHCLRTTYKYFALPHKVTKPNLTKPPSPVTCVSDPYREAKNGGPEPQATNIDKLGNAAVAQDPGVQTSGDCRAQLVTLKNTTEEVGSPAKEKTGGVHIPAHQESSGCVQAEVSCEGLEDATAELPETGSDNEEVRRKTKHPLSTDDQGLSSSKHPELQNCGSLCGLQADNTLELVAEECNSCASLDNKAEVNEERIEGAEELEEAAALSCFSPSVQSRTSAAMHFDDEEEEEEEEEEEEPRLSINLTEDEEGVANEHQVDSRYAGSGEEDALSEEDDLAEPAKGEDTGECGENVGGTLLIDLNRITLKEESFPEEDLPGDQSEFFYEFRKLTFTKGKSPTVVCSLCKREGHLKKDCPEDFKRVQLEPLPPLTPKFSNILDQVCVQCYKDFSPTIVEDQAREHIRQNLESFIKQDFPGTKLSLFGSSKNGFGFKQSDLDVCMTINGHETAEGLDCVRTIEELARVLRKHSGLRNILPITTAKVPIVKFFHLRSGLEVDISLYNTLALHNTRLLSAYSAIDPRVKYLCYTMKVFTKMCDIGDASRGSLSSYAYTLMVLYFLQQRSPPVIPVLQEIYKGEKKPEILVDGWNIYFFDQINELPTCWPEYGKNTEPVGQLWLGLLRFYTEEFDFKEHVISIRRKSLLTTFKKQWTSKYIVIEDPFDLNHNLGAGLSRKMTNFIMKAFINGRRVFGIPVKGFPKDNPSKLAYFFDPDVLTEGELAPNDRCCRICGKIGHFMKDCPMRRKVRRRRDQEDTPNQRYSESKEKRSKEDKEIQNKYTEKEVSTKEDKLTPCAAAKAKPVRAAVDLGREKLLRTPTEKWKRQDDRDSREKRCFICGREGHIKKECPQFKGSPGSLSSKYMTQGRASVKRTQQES
# UniProt Q3V1L4: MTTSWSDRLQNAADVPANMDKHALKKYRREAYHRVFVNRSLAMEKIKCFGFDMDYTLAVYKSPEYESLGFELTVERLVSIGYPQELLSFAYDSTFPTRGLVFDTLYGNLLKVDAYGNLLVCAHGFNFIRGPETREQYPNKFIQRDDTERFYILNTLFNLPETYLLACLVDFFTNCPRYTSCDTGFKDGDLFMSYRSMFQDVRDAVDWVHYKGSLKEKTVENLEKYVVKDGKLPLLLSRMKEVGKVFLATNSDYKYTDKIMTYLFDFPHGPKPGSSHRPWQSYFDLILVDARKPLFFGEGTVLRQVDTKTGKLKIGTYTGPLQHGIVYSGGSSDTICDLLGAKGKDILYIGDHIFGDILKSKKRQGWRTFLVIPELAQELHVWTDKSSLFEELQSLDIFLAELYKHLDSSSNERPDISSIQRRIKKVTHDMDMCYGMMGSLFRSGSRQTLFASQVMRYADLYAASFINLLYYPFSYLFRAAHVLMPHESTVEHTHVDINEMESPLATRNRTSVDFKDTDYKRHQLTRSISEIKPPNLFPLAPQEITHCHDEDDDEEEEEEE
# UniProt Q3UPH1: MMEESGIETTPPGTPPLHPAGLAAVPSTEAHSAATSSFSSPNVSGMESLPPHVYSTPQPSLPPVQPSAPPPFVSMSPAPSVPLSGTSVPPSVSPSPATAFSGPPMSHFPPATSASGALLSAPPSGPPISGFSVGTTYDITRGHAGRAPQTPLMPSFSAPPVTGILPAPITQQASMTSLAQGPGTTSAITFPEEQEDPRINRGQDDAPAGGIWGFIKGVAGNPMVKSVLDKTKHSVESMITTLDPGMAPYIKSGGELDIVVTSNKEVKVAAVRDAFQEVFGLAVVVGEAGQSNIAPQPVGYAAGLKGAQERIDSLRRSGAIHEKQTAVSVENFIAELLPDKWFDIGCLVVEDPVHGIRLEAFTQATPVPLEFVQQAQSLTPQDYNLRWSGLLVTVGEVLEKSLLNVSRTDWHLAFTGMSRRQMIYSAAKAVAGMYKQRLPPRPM
# UniProt Q4KML4: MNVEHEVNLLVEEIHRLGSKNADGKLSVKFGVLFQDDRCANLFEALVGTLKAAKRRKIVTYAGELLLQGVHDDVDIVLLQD
# UniProt Q3U3W5: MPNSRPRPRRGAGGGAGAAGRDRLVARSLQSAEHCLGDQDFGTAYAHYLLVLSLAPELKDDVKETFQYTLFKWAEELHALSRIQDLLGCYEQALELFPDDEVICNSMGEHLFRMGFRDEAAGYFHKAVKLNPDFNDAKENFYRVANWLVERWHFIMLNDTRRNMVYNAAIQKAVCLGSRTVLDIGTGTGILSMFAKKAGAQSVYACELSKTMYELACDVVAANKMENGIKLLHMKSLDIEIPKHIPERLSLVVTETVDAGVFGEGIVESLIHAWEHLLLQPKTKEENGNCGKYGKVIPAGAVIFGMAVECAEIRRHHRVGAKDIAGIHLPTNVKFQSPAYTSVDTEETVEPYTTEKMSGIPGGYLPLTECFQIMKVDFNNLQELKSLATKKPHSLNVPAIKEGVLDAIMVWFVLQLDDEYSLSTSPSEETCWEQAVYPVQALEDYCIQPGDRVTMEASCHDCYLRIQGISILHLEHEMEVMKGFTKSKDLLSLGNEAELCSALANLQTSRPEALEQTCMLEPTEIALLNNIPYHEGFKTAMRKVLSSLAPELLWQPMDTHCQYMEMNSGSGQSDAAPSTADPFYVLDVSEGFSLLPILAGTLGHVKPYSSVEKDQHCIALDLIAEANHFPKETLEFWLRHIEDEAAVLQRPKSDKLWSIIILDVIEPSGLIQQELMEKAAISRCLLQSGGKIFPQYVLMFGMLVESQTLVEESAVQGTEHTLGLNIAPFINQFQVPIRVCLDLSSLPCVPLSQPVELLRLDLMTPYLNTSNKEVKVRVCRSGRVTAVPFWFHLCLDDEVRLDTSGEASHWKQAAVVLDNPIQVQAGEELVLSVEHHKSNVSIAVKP
# UniProt Q3UMT1: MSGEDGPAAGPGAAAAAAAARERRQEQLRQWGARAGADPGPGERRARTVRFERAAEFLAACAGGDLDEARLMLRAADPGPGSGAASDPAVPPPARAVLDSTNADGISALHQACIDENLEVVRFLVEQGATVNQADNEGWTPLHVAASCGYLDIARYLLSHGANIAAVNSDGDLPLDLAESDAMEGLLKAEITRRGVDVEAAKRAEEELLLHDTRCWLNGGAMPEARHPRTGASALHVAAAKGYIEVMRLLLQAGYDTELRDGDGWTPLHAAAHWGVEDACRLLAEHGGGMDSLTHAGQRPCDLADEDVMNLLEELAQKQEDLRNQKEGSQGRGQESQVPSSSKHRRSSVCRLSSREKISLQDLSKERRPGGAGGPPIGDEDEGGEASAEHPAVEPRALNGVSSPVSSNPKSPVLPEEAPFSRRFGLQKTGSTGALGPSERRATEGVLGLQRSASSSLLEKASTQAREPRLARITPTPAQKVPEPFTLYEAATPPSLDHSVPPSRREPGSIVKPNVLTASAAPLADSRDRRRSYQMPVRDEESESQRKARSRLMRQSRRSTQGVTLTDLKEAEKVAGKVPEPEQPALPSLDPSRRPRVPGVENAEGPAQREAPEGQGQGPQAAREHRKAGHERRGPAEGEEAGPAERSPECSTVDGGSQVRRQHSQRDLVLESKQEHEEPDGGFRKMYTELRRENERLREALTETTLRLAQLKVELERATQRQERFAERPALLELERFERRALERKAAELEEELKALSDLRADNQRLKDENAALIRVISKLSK
# Compound: CN[C@@H]1C[C@H]2O[C@@](C)([C@@H]1OC)n1c3ccccc3c3c4c(c5c6ccccc6n2c5c31)C(=O)NC4 [staurosporine]
# Assay: log2 fold change of tryptic peptide abundance, ligand vs vehicle (limited proteolysis) (log2 ratio); higher = more trypsin-susceptible (destabilized)
# Details: ligand concentration: 20 uM; sample: mouse liver crude lysate; replicate design: treated separately
row,Target,log2 fold change
1,"UniProt Q4VBD2 (peptide sequence: FTICGNRID, peptide start residue: 556)",0.244
2,"UniProt Q3U487 (peptide sequence: YDQWWECK, peptide start residue: 524)",0.361
3,"UniProt Q3UHQ6 (peptide sequence: HQEALIGQSFYGK, peptide start residue: 1283)",0.719
4,"UniProt Q4VAC9 (peptide sequence: RPGSSRPASWTLFDLPGPR, peptide start residue: 896)",-0.302
5,"UniProt Q3UHK8 (peptide sequence: LLPAASAVSSK, peptide start residue: 1027)",-0.346
6,"UniProt Q569Z5 (peptide sequence: LQNSYQPTNK, peptide start residue: 1017)",0.136
7,"UniProt Q3UA37 (peptide sequence: NAELEKDAQNR, peptide start residue: 491)",0.316
8,"UniProt Q5DTT3 (peptide sequence: DAPVPTNTKR, peptide start residue: 425)",-0.766
9,"UniProt Q497V5 (peptide sequence: VNISDGVKNEFCR, peptide start residue: 447)",0.19
10,"UniProt Q3UHX0 (peptide sequence: TLKENIAFNTGGGHHSSLK, peptide start residue: 565)",-0.692
11,"UniProt Q3UHB8 (peptide sequence: KLQQEQNLK, peptide start residue: 453)",0.242
12,"UniProt Q5BLK4 (peptide sequence: YTEKEVSTKEDK, peptide start residue: 1394)",0.517
13,"UniProt Q3V1L4 (peptide sequence: LQNAADVPANMDKHALKK, peptide start residue: 9)",-0.261
14,"UniProt Q3UQS8 (peptide sequence: GSPEDGSHEASPLEGK, peptide start residue: 1048)",-0.781
15,"UniProt Q3UPH1 (peptide sequence: TKHSVESMITTLDPGMAPYIK, peptide start residue: 231)",-0.265
16,"UniProt Q571B6 (peptide sequence: KVETPTLPHPGTSVNEQVLAAIR, peptide start residue: 715)",-0.259
17,"UniProt Q3UNZ8 (peptide sequence: INDAFLHVMQR, peptide start residue: 329)",0.132
18,"UniProt Q3UHD6 (peptide sequence: KMVMYLNMLR, peptide start residue: 408)",0.383
19,"UniProt Q4KML4 (peptide sequence: FGVLFQDDR, peptide start residue: 30)",-0.127
20,"UniProt Q3U3W5 (peptide sequence: LNPDFNDAKENFYR, peptide start residue: 130)",-0.33
21,"UniProt Q5DTI6 (peptide sequence: NALLDKFTDTK, peptide start residue: 178)",0.0954
22,"UniProt Q4VC33 (peptide sequence: EVFHFSQAEK, peptide start residue: 383)",0.349
23,"UniProt Q3UMT1 (peptide sequence: ALNGVSSPVSSNPK, peptide start residue: 397)",0.177
24,"UniProt Q3UZ09 (peptide sequence: EACEAWLHQR, peptide start residue: 395)",0.162
25,"UniProt Q3U3D7 (peptide sequence: SCLPVGPSLSR, peptide start residue: 949)",0.278

# An excerpt of these results, with tabs.
row	Target	log2 fold change
2	UniProt Q3U487 (peptide sequence: YDQWWECK, peptide start residue: 524)	0.361
15	UniProt Q3UPH1 (peptide sequence: TKHSVESMITTLDPGMAPYIK, peptide start residue: 231)	-0.265
